These are yes or no findings as the source states them, for the method shown. In cells and extracts the contact can be indirect. Some results given as binding are weak or reduced against the parent protein; the word gives no strength. For part of these data: Where a sequence is shown, tags or fusion partners need not be part of it.

By UniProt entry, the sequences of proteins in these tests, tags left out.
UniProt Q24311: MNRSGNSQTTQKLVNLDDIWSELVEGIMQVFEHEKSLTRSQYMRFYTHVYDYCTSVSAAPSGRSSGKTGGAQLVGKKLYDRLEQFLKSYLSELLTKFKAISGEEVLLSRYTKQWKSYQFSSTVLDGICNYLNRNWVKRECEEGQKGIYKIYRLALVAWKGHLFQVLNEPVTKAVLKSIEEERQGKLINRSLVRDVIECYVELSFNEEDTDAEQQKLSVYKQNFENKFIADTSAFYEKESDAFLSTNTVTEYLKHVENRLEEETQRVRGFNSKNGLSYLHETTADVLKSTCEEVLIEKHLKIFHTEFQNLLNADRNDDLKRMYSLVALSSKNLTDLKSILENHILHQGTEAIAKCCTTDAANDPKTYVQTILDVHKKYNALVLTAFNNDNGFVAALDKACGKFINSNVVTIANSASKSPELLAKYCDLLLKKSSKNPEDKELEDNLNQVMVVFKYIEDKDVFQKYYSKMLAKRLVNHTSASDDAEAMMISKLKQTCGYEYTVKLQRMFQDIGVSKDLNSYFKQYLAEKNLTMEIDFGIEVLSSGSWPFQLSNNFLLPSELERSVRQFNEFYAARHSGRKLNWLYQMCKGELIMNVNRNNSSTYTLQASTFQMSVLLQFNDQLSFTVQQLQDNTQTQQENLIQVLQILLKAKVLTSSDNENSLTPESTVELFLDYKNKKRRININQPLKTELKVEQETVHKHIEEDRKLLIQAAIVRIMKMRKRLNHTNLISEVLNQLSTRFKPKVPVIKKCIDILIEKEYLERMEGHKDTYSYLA
UniProt Q9UKB1: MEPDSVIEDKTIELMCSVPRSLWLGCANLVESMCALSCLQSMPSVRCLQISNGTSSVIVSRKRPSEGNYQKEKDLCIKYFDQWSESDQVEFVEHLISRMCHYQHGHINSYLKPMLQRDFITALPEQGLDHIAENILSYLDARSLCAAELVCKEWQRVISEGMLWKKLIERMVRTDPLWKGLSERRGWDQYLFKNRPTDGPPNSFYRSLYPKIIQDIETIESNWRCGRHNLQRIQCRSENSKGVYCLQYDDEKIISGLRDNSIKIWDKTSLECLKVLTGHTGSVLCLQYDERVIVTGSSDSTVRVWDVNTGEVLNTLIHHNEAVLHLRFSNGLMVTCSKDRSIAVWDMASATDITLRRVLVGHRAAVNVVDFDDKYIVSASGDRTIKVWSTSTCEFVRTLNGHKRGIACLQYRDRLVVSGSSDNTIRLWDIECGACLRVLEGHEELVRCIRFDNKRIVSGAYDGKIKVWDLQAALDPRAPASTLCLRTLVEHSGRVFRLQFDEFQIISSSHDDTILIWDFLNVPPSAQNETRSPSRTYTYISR
UniProt O77430: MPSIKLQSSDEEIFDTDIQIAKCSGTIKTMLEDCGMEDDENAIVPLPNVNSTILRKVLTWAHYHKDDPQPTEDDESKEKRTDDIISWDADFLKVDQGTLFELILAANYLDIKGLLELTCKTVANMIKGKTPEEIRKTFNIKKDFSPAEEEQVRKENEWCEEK
UniProt Q9Y297: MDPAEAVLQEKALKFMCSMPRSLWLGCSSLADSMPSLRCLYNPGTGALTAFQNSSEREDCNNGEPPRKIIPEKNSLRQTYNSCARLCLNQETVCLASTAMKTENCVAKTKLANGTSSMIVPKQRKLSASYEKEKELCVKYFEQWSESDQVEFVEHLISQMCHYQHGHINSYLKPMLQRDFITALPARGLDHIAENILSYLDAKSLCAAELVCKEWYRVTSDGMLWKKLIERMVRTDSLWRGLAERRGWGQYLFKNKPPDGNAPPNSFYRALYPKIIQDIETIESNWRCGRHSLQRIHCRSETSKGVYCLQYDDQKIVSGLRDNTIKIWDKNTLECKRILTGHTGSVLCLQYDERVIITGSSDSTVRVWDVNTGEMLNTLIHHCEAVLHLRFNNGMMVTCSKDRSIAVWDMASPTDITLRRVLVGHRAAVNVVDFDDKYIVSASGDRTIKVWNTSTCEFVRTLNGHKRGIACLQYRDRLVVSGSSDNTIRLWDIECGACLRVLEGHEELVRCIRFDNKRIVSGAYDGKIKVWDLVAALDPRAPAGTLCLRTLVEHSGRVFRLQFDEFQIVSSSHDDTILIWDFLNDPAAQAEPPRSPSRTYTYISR
UniProt Q05856: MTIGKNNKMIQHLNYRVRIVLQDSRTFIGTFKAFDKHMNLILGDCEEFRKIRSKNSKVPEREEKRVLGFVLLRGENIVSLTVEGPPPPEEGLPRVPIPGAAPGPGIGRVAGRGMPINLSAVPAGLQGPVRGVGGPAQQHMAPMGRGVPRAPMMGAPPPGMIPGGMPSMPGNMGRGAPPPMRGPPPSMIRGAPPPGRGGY
UniProt Q16637: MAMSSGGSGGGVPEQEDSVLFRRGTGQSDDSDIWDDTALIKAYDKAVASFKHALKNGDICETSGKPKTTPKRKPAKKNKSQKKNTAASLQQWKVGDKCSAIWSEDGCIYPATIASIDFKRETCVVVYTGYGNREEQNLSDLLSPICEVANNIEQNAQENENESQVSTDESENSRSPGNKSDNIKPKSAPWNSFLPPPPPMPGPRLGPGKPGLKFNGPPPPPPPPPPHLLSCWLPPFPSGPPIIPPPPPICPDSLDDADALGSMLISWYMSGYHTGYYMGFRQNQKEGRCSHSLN

We go through five molecules from publication doi:10.1101/078337.

Holding throughout (assay): co-IP
For test [1], the target named is T1, Flag-SMN (Drosophila SMN from the Flag-Smn^WT transgene) (Drosophila melanogaster) (UniProt Q9VV74).
T1 sequence: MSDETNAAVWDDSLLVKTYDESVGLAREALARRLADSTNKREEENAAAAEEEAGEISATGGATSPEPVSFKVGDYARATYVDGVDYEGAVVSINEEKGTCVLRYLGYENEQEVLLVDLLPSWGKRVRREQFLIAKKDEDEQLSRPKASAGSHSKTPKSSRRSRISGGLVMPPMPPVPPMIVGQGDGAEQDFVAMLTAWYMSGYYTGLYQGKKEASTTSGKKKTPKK

Test [2] has as its target Drosophila Flag-Cul1 (in HEK 293T cells) (Drosophila) (UniProt Q24311).
In test [3] the target is Flag-B-TrCP2 (human) (human) (UniProt Q9UKB1).
Test [4] concerns the target Drosophila Flag-SkpA (in HEK 293T cells) (Drosophila) (UniProt O77430).
Test [5] concerns the target Flag-B-TrCP1 (human) (human) (UniProt Q9Y297).
For test [6], the target named is T2, Flag-SMN (Drosophila SMN from the Flag-Smn^WT transgene) (Drosophila melanogaster), Q9VV74.
T2 chain: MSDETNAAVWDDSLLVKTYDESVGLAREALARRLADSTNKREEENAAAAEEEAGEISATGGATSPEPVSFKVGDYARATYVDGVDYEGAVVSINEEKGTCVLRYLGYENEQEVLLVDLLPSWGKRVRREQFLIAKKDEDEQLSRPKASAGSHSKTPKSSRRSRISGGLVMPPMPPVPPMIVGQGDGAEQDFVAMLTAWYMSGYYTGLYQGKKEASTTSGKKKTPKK
Particulars: remark: other sources report otherwise.

For test [7], the target named is SkpA-Flag (Drosophila SkpA, in S2 cells) (Drosophila) (UniProt O77430).
The target in test [8] is Cul1-Flag (Drosophila Cul1, in S2 cells) (Drosophila) (UniProt Q24311).

With “SmB (Drosophila) (from UniProt Q05856 1-199)”, the binding entry in test [1] was “binds”. As to “endogenous human SMN of HEK 293T cells (from UniProt Q16637 1-294)”, the binding entry in test [2], in test [3], in test [4] and in test [5] was “binds” each time.

B1: SmD3 (Drosophila) (protein, UniProt O44437 1-151)
chain: MSIGVPIKVLHEAEGHIITCETITGEVYRGKLIEAEDNMNCQMTQITVTYRDGRTANLENVYIRGSKIRFLILPDMLKNAPMFKKQTGKGLGGTAGRGKAAILRAQARGRGRGGPPGGGRGTGGPPGAPGGSGGRGAWQGGPTGGRGRGGL
As to B1, the binding result in test [1] is “binds”.

B2: α-Actinin (Drosophila), P18091 1-917 (protein)
chain: MMMENGLSMEYGDGYMEQEEEWEREGLLDPAWEKQQKKTFTAWCNSHLRKAGTAIDNIEEDFRNGLKLMLLLEVISGETLPKPDRGKMRFHKIANVNKALDFIASKGVHLVSIGAEEIVDGNLKMTLGMIWTIILRFAIQDISVEEMTAKEGLLLWCQRKTAPYKNVNVQNFHLSFKDGLAFCALIHRHRPDLIDYAKLSKDNPLENLNTAFDVAEKYLDIPRMLDPDDLINTPKPDERAIMTYVSCYYHAFQGAQQVGNVTHVPEPTRQYTYVPNNYNAETAANRICKVLKVNQENERLMEEYERLASDLLEWIRRTMPWLNSRQADNSLAGVQKKLEEYRTYRRKHKPPRVEQKAKLETNFNTLQTKLRLSNRPAYLPTEGKTVSDISNSWKGLELAEKAFEEWLLAETMRLERLEHLAQKFKHKADAHEDWTRGKEEMLQSQDFRQCKLNELKALKKKHEAFESDLAAHQDRVEQIAAIAQELNTLEYHDCVSVNARCQRICDQWDRLGALTQRRRTALDEAERILEKIDILHLEFAKRAAPFNNWLDGTREDLVDMFIVHTMEEIQGLIQAHDQFKATLGEADKEFNLIVNLVREVESIVKQHQIPGGLENPYTTLTANDMTRKWSDVRQLVPQRDQTLANELRKQQNNEMLRRQFAEKANIVGPWIERQMDAVTAIGMGLQGSLEDQLHRLKEYEQAVYAYKPNIEELEKIHQAVQESMIFENRYTNYTMETLRVGWEQLLTSINRNINEVENQILTRDSKGISQEQLNEFRSSFNHFDKNRTGRLSPEEFKSCLVSLGYSIGKDRQGDLDFQRILAVVDPNNTGYVHFDAFLDFMTRESTDTDTAEQVIDSFRILAADKPYILPDELRRELPPDQAEYCIQRMPPYKGPNGVPGALDYMSFSTALYGETDL
With B2, the binding entry in test [6] is reported as “no binding”.

B3: endogenous SMN of Drosophila S2 cells (protein, UniProt Q9VV74 1-226)
chain: MSDETNAAVWDDSLLVKTYDESVGLAREALARRLADSTNKREEENAAAAEEEAGEISATGGATSPEPVSFKVGDYARATYVDGVDYEGAVVSINEEKGTCVLRYLGYENEQEVLLVDLLPSWGKRVRREQFLIAKKDEDEQLSRPKASAGSHSKTPKSSRRSRISGGLVMPPMPPVPPMIVGQGDGAEQDFVAMLTAWYMSGYYTGLYQGKKEASTTSGKKKTPKK
With B3, the binding result in test [7] and in test [8] was “binds” throughout.
